Reference: patent US20250283871A1, “COMPOSITIONS AND METHODS FOR MODULATING THE INTERACTION BETWEEN SS18-SSX FUSION ONCOPROTEIN AND NUCLEOSOMES” (Dana-Farber Cancer Institute, Inc., priority 2020, published 2025)

Tested on: BAF complex subunits and histone proteins
Assay: Mass spectrometry proteomics of purified HA-SS18 WT and HA-SS18-SSX1 complexes (Tables 5A-5E)
Set-up: species or system human
Conditions: for Total / Unique: HA-SS18SSX1_CHR_peptides; for Total: total peptides of the identified protein; for Unique: unique peptides of the identified protein; for Total (total peptides) / Unique (unique peptides): HA-SS18WT_CHR_peptides: protein identified in HA-SS18 WT BAF complex purification from nuclease-treated solubilized chromatin (CHR)
[1] = HA-SS18SSX1_NE_peptides: protein co-purified with HA-SS18-SSX1 BAF complexes from soluble nuclear extract (NE), HEK-293T cells
[2] = HA-SS18WT_NE_peptides: HA-SS18 WT complexes purified from nuclear extract (NE), HEK-293T, label = protein identified (Gene Symbol)
[3] = HA-SS18WT_CHR_peptides: HA-SS18 WT purification from nuclease-treated solubilized chromatin (CHR), HEK-293T, label = protein identified

| Molecule | Total | Unique | Total (peptides) [1] | Unique (peptides) [1] | Total (peptides) [2] | Unique (peptides) [2] | Total (peptides) [3] | Unique (peptides) [3] | Total (total peptides) (HEK-293T) | Unique (unique peptides) (HEK-293T) |
| --- | --- | --- | --- | --- | --- | --- | --- | --- | --- | --- |
| NEFM (protein, UniProt P07197 2-916, looked up) Neurofilament medium …: SYTLDSLGNPSAYRRVTETRSSFSRVSGSPSSGFRSQSWSRGSPSTVSSSYKRSMLAPRLAYSSAMLSSAESSLDFSQSSSLLNGGSGPGGDYKLSRSNEKEQLQGLNDRFAGYIEKVHYLEQQNKEIEAEIQALRQKQASHAQLGDAYDQEIRELRATLEMVNHEKAQVQLDSDHLEEDIHRLKERFEEEARLRDDTEAAIRALRKDIEEASLVKVELDKKVQSLQDEVAFLRSNHEEEVADLLAQIQASHITVERKDYLKTDISTALKEIRSQLESHSDQNMHQAEEWFKCRYAKLTEAAEQNKEAIRSAKEEIAEYRRQLQSKSIELESVRGTKESLERQLSDIEERHNHDLSSYQDTIQQLENELRGTKWEMARHLREYQDLLNVKMALDIEIAAYRKLLEGEETRFSTFAGSITGPLYTHRPPITISSKIQKPKVEAPKLKVQHKFVEEIIEETKVEDEKSEMEEALTAITEELAVSMKEEKKEAAEEKEEEPEAEEEEVAAKKSPVKATAPEVKEEEGEKEEEEGQEEEEEEDEGAKSDQAEEGGSEKEGSSEKEEGEQEEGETEAEAEGEEAEAKEEKKVEEKSEEVATKEELVADAKVEKPEKAKSPVPKSPVEEKGKSPVPKSPVEEKGKSPVPKSPVEEKGKSPVPKSPVEEKGKSPVSKSPVEEKAKSPVPKSPVEEAKSKAEVGKGEQKEEEEKEVKEAPKEEKVEKKEEKPKDVPEKKKAESPVKEEAVAEVVTITKSVKVHLEKETKEEGKPLQQEKEKEKAGGEGGSEEEGSDKGAKGSRKEDIAVNGEVEGKEEVEQETKEKGSGREEEKGVVTNGLDLSPADEKKGGDKSEEKVVVTKTVEKITSEGGDGATKYITKSVTVTQKVEEHEETFEEKLVSTKKVEKVTSHAIVKEVTQSD | 2 | 2 | – | – | – | – | – | – | – | – |
| NOL9 (protein, UniProt Q5SY16 2-702, looked up) Polynucleotide …: ADSGLLLKRGSCRSTWLRVRKARPQLILSRRPRRRLGSLRWCGRRRLRWRLLQAQASGVDWREGARQVSRAAAARRPNTATPSPIPSPTPASEPESEPELESASSCHRPLLIPPVRPVGPGRALLLLPVEQGFTFSGICRVTCLYGQVQVFGFTISQGQPAQDIFSVYTHSCLSIHALHYSQPEKSKKELKREARNLLKSHLNLDDRRWSMQNFSPQCSIVLLEHLKTATVNFITSYPGSSYIFVQESPTPQIKPEYLALRSVGIRREKKRKGLQLTESTLSALEELVNVSCEEVDGCPVILVCGSQDVGKSTFNRYLINHLLNSLPCVDYLECDLGQTEFTPPGCISLLNITEPVLGPPFTHLRTPQKMVYYGKPSCKNNYENYIDIVKYVFSAYKRESPLIVNTMGWVSDQGLLLLIDLIRLLSPSHVVQFRSDHSKYMPDLTPQYVDDMDGLYTKSKTKMRNRRFRLAAFADALEFADEEKESPVEFTGHKLIGVYTDFAFRITPRNRESHNKILRDLSILSYLSQLQPPMPKPLSPLHSLTPYQVPFNAVALRITHSDVAPTHILYAVNASWVGLCKIQDDVRGYTNGPILLAQTPICDCLGFGICRGIDMEKRLYHILTPVPPEELRTVNCLLVGAIAIPHCVLKCQRGIEGTVPYVTTDYNFKLPGASEKIGAREPEEAHKEKPYRRPKFCRKMK | 2 | 2 | 1 | 1 | 3 | 3 | – | – | – | – |
| HNRNPH3 (protein, UniProt P31942 1-346, looked up) Heterogeneous nuclear …: MDWVMKHNGPNDASDGTVRLRGLPFGCSKEEIVQFFQGLEIVPNGITLTMDYQGRSTGEAFVQFASKEIAENALGKHKERIGHRYIEIFRSSRSEIKGFYDPPRRLLGQRPGPYDRPIGGRGGYYGAGRGSMYDRMRRGGDGYDGGYGGFDDYGGYNNYGYGNDGFDDRMRDGRGMGGHGYGGAGDASSGFHGGHFVHMRGLPFRATENDIANFFSPLNPIRVHIDIGADGRATGEADVEFVTHEDAVAAMSKDKNNMQHRYIELFLNSTPGGGSGMGGSGMGGYGRDGMDNQGGYGSVGRMGMGNNYSGGYGTPDGLGGYGRGGGGSGGYYGQGGMSGGGWRGMY | 2 | 2 | – | – | – | – | 3 | 3 | – | – |
| SENP7 (protein, UniProt Q9BQF6 1-1050, looked up) Sentrin-specific protease 7: MDKRKLGRRPSSSEIITEGKRKKSSSDLSEIRKMLNAKPEDVHVQSPLSKFRSSERWTLPLQWERSLRNKVISLDHKNKKHIRGCPVTSKSSPERQLKVMLTNVLWTDLGRKFRKTLPRNDANLCDANKVQSDSLPSTSVDSLETCQKLEPLRQSLNLSERIPRVILTNVLGTELGRKYIRTPPVTEGSLSDTDNLQSEQLSSSSDGSLESYQNLNPHKSCYLSERGSQRSKTVDDNSAKQTAHNKEKRRKDDGISLLISDTQPEDLNSGSRGCDHLEQESRNKDVKYSDSKVELTLISRKTKRRLRNNLPDSQYCTSLDKSTEQTKKQEDDSTISTEFEKPSENYHQDPKLPEEITTKPTKSDFTKLSSLNSQELTLSNATKSASAGSTTETVENSNSIDIVGISSLVEKDENELNTIEKPILRGHNEGNQSLISAEPIVVSSDEEGPVEHKSSEILKLQSKQDRETTNENESTSESALLELPLITCESVQMSSELCPYNPVMENISSIMPSNEMDLQLDFIFTSVYIGKIKGASKGCVTITKKYIKIPFQVSLNEISLLVDTTHLKRFGLWKSKDDNHSKRSHAILFFWVSSDYLQEIQTQLEHSVLSQQSKSSEFIFLELHNPVSQREELKLKDIMTEISIISGELELSYPLSWVQAFPLFQNLSSKESSFIHYYCVSTCSFPAGVAVAEEMKLKSVSQPSNTDAAKPTYTFLQKQSSGCYSLSITSNPDEEWREVRHTGLVQKLIVYPPPPTKGGLGVTNEDLECLEEGEFLNDVIIDFYLKYLILEKASDELVERSHIFSSFFYKCLTRKENNLTEDNPNLSMAQRRHKRVRTWTRHINIFNKDYIFVPVNESSHWYLAVICFPWLEEAVYEDFPQTVSQQSQAQQSQNDNKTIDNDLRTTSTLSLSAEDSQSTESNMSVPKKMCKRPCILILDSLKAASVQNTVQNLREYLEVEWEVKLKTHRQFSKTNMVDLCPKVPKQDNSSDCGVYLLQYVESFFKDPIVNFELPIHLEKWFPRHVIKTKREDIRELILKLHLQQQKGSSS | 2 | 2 | – | – | – | – | – | – | 2 | 2 |
| FAM207A (protein) MGKVRGLRARVHQAAVRPKGEAAPGPAPPAPEATPPPASAAGKDWAFINTNIFARTKIDPSALVQKLELDVRSVTSVRRGEAGSSARSVPSIRRGAEAKTVLPKKEKMKLRREQWLQKIEAIKLAEQKHREERRRRATVVVGDLHPLRDALPELLGLEAGSRRQARSRESNKPRPSELSRMSAAQRQQLLEEERTRFQELLASPAYRASPLVAIGQTLARQMQLEDGGQL | 2 | 2 | 2 | 2 | – | – | – | – | 2 | 2 |
| RRP15 (protein, UniProt Q9Y3B9 2-282, looked up) RRP15-like protein: AAAAPDSRVSEEENLKKTPKKKMKMVTGAVASVLEDEATDTSDSEGSCGSEKDHFYSDDDAIEADSEGDAEPCDKENENDGESSVGTNMGWADAMAKVLNKKTPESKPTILVKNKKLEKEKEKLKQERLEKIKQRDKRLEWEMMCRVKPDVVQDKETERNLQRIATRGVVQLFNAVQKHQKNVDEKVKEAGSSMRKRAKLISTVSKKDFISVLRGMDGSTNETASSRKKPKAKQTEVKSEEGPGWTILRDDFMMGASMKDWDKESDGPDDSRPESASDSDT | 2 | 2 | – | – | – | – | – | – | 1 | 1 |
